Measurements reported in article doi:10.1101/2021.09.29.462327.
Results are given in words; binding and its absence hold for the method and conditions named. In cells and extracts the contact can be indirect. A yes stands for co-enrichment or nearness to the bait. Other partners may have been found.

Amino acid sequences for entries named in this document (tags omitted). A change or cut given only in a name is not applied to a line headed by its entry.
UniProt Q38CW6: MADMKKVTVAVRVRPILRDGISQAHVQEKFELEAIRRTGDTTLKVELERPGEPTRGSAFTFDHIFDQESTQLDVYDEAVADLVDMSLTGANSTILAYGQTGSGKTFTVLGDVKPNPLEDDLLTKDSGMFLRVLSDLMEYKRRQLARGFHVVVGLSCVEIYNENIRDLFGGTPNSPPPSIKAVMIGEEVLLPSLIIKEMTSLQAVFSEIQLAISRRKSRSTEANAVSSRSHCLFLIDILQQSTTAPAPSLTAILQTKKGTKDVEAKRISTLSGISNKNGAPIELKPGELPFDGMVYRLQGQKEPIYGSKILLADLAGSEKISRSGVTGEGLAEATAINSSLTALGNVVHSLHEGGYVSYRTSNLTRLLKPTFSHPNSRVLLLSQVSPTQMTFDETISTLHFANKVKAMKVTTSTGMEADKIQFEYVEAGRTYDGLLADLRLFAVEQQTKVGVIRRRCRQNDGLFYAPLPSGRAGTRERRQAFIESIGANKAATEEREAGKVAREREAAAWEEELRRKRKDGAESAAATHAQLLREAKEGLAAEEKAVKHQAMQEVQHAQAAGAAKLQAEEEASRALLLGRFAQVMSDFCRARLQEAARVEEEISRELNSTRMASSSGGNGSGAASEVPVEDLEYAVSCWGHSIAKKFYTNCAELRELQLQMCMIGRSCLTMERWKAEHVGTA

Biological target: TbPH1-V5 (Trypanosoma brucei) (UniProt Q582W2)
Test: affinity purification with mass spectrometry

TbKifX2A (from UniProt Q38CW6)
binding: binds
